Assay results published in patent US20090117091A1.
No constants are given. Whether binding was seen depends on the method and setting. Some binding calls cover weakened binding; strength is not graded here.

The chains behind the UniProt entries cited, without tags or fusion partners. Where a name states a change or a piece, a line headed by the entry shows the natural chain unless it says otherwise. Residues count along the entry.
UniProt P11717: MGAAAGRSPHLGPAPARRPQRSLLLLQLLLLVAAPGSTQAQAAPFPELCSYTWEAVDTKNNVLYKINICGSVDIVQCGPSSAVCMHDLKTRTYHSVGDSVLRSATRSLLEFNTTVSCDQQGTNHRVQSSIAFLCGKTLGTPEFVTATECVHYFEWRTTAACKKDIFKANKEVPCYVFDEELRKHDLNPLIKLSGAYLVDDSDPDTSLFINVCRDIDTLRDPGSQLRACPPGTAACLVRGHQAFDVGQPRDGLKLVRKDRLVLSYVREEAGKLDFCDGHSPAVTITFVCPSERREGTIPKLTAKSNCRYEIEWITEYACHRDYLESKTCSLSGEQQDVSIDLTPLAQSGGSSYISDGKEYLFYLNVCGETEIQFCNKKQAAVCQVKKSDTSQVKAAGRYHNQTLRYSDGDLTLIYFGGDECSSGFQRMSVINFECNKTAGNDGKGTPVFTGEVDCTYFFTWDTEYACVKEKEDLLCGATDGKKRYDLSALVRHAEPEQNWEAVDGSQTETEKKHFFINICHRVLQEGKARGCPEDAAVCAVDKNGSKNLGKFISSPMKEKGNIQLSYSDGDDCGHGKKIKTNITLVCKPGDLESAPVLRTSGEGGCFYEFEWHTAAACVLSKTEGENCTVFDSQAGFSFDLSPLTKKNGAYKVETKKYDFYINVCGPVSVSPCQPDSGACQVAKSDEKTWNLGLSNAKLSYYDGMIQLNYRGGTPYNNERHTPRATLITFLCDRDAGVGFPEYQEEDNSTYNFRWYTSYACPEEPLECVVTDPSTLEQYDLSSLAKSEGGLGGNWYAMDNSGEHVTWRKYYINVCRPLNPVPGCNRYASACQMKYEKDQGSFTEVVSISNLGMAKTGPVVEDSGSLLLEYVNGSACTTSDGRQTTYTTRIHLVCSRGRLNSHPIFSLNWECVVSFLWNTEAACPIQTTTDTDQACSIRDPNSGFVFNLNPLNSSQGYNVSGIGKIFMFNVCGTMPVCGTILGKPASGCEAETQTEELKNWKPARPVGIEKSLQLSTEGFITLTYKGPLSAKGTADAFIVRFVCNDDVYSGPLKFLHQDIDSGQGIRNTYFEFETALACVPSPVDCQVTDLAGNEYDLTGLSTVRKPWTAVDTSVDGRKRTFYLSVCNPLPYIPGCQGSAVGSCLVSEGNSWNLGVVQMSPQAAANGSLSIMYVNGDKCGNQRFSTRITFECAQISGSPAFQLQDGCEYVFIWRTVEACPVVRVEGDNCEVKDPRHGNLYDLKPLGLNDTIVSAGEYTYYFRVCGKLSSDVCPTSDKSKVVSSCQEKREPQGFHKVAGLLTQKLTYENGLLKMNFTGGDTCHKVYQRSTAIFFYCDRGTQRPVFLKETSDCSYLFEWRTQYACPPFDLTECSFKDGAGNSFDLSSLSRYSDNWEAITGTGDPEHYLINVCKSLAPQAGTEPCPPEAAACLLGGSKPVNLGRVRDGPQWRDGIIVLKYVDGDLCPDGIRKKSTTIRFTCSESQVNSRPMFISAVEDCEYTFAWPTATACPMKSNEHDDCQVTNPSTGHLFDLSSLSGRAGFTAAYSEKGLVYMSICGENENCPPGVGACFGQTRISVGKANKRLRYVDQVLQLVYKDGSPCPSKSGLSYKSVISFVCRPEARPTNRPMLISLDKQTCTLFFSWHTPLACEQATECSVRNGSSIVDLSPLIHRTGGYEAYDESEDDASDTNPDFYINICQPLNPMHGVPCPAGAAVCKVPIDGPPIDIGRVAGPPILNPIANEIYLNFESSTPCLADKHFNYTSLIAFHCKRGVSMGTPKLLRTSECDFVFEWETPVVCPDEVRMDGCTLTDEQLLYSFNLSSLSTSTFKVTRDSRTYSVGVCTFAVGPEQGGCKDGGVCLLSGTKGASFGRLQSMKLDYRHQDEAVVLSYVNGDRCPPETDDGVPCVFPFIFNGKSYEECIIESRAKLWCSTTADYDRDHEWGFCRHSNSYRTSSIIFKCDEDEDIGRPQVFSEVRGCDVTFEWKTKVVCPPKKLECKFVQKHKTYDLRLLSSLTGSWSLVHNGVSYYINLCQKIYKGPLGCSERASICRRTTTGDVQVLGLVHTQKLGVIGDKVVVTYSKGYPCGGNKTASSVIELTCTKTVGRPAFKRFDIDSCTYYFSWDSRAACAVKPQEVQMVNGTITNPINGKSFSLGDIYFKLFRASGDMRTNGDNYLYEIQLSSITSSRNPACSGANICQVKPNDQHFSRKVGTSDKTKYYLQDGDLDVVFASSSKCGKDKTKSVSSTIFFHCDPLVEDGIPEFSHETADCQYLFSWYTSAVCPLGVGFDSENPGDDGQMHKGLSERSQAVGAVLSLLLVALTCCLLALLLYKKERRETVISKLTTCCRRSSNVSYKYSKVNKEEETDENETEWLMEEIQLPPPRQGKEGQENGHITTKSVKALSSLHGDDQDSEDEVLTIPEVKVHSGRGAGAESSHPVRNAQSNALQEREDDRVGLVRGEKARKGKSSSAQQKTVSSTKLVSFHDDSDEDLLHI
UniProt P01344, residues 25-91: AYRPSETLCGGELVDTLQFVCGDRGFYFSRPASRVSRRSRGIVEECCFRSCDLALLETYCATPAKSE

Biological target: biotinylated, His-tagged recombinant wild-type CI-MPR domains 10-13 (1288FS) (Homo sapiens (Human)) (UniProt P11717)
Experiment: SPR (Biacore 3000): biotinylated wild-type CI-MPR Dom10-13 on an SA chip, I1572T mutant Dom10-13 flow cell subtracted

Which binding does the source give for “IGF-II (from UniProt P01344 25-91) (ligand)” here?
Its binding is “binds”.
